Values from PubChem BioAssay AID504784 (Drosophila RNAi Screening Center, 2011)

Test: 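Search for regulators of lipid droplet storage in oleate-fed fly cells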 (primary screen)
System: Drosophila Kc167 embryonic cells
Knock-down reagent: long dsRNA against Drosophila genes, about 250 ng dsRNA per well
Duration: 4 days
Challenge: cells fed 400 µM oleic acid bound to BSA
Read-out: 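Microscope images give a droplet-to-nucleus area ratio, taken as log and converted to a screen-wide B-score; higher values mean greater lipid storage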
Direction: droplet/nuclear area B-score: higher = more stored lipid (overstorage)
In all, the deposit lists about 17,000 reagents; this is a random part of those that have a named target and a result. 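Each column is one replicate's B-score; the combined score over replicates was not deposited, so single values may mislead.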 Reagents against one gene are numbered here. Further read-outs or replicates are left out here. No sequences are given here.

CG43163 #1 — droplet/nuclear area B-score, replicate 1: 0.204
CG43163 #2 — droplet/nuclear area B-score, replicate 1: 0.219
mRpL33 — droplet/nuclear area B-score, replicate 1: 1.3
CG30065 — droplet/nuclear area B-score, replicate 1: 1.3
CG13926 — droplet/nuclear area B-score, replicate 1: 2.21
CG12374 — droplet/nuclear area B-score, replicate 1: -0.295
CG7079 — droplet/nuclear area B-score, replicate 1: -0.0805
RabX6 — droplet/nuclear area B-score, replicate 1: 0.837
CG9021 — droplet/nuclear area B-score, replicate 1: -0.361
spas — droplet/nuclear area B-score, replicate 1: 4.2
CG9717 — droplet/nuclear area B-score, replicate 1: 0.152
CG15308 — droplet/nuclear area B-score, replicate 1: -1.36
CG12078 — droplet/nuclear area B-score, replicate 1: -1.09
dpr15 #1 — droplet/nuclear area B-score, replicate 1: -0.617
dpr15 #2 — droplet/nuclear area B-score, replicate 1: 0.852
dpr15 #3 — droplet/nuclear area B-score, replicate 1: -0.225
CG18265 — droplet/nuclear area B-score, replicate 1: 0.936
Phb2 — droplet/nuclear area B-score, replicate 1: 2.17
mnb #1 — droplet/nuclear area B-score, replicate 1: 1.47
mnb #2 — droplet/nuclear area B-score, replicate 1: -1.49
mnb #3 — droplet/nuclear area B-score, replicate 1: 0.196
GNBP2 — droplet/nuclear area B-score, replicate 1: -0.124
Lipt2 #1 — droplet/nuclear area B-score, replicate 1: -0.47
Lipt2 #2 — droplet/nuclear area B-score, replicate 1: 0.0466
CG11857 — droplet/nuclear area B-score, replicate 1: -0.163
Nep2 #1 — droplet/nuclear area B-score, replicate 1: -0.104
Nep2 #2 — droplet/nuclear area B-score, replicate 1: -0.226
CG2772 — droplet/nuclear area B-score, replicate 1: 0.0538
Tbcb — droplet/nuclear area B-score, replicate 1: 1.52
Glys — droplet/nuclear area B-score, replicate 1: 1.57
l(2)k14505 — droplet/nuclear area B-score, replicate 1: -1.07
se — droplet/nuclear area B-score, replicate 1: -0.963
shep #1 — droplet/nuclear area B-score, replicate 1: -0.0288
shep #2 — droplet/nuclear area B-score, replicate 1: -0.837
Vps50 — droplet/nuclear area B-score, replicate 1: -0.271
Mrm2 — droplet/nuclear area B-score, replicate 1: 1.54
CG31952 #1 — droplet/nuclear area B-score, replicate 1: -0.62
CG31952 #2 — droplet/nuclear area B-score, replicate 1: 0.416
Prdm13 — droplet/nuclear area B-score, replicate 1: -0.964
Grx5 — droplet/nuclear area B-score, replicate 1: -0.912

As entered above.
Vps50, droplet/nuclear area B-score, replicate 1 = -0.271
Entry of Nep2 #1 under “droplet/nuclear area B-score, replicate 1”: -0.104
Tbcb, droplet/nuclear area B-score, replicate 1 = 1.52
Under “droplet/nuclear area B-score, replicate 1”, shep #2 has -0.837
